The test system of one data set is caspase-3. Kind of data set: qRT-PCR caspase-3 level. The format is cell-based, human. The following applies: HCT-116 cells, 72 h, versus untreated cells. For orientation: Real-time PCR tracks product formation cycle by cycle.
A further data set deals with caspase-8. Description: qRT-PCR caspase-8 level. The format is cell-based, human. As to conditions: HCT-116 cells, 72 h, versus untreated cells.
The next data set in a line: in vitro. The following applies: human.

Regarding `CN[C@@H]1C[C@H]2O[C@@](C)([C@@H]1OC)n1c3ccccc3c3c4c(c5c6ccccc6n2c5c31)C(=O)NC4` [Staurosporine, reference compound], in the data set on caspase-3, the “RT-PCR (Fold Change) Caspase-3” value amounted to 6.8073 Fold Change. In addition, the “RT-PCR (Fold Change) Caspase-8” value in the data set with caspase-8 is 3.4529 Fold Change. For the same molecule, in “in vitro”, the half-inhibitory concentration (IC50) came to 51.5 ± 2.2 µM.

By IC50 is commonly meant the concentration that gives 50% inhibition.

For the origin of these results see paper PMC10384246, “Discovery of New Uracil and Thiouracil Derivatives as Potential HDAC Inhibitors” (Pharmaceuticals, 2023).
